From the supplement of paper PMC10735217
Where a name gives a salt, the structure may show the parent alone. The list shows a part of the results. Single values are uncertain here, since repeats match poorly.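 Human kidney-derived cells stably carry a construct in which eight TEAD-binding elements drive luciferase, measured by luminescence in a drug-repurposing library screen. A hit is any compound whose signal exceeds the plate mean by more than five robust Z scores.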

System: HEK293A TEAD-LUC reporter
Assay: TEAD-luciferase reporter activity (YAP activation), robust Z score vs plate; higher = stronger YAP/TEAD activation
Conditions: 24 h

SMILES	TEAD-luciferase reporter activity (compound concentration: 200 nM)	TEAD-luciferase reporter activity (compound concentration: 2 uM)	TEAD-luciferase reporter activity (compound concentration: 10 uM)
Cn1c(=O)c2c(ncn2CCOC(=O)C(C)(C)Oc2ccc(Cl)cc2)n(C)c1=O [Etofilline clofibrate]	inactive: 0.177	inactive: -0.965	active: 7.05
NC(=O)NC1NC(=O)NC1=O (stereo not drawn) [allantoin]	inactive: -2.42	inactive: -1.59	inactive: -0.108
CC(C)(C)OC(=O)N[C@@H](Cc1ccccc1)[C@@H](O)CNC[C@H](O)[C@H](Cc1ccccc1)NC(=O)OC(C)(C)C	inactive: -0.174	inactive: -0.111	inactive: 1.08
CN1[C@@H]2CC[C@H]1C[C@@H](NC(=O)N1CC(C)(C)c3ccccc31)C2	inactive: 0.843	inactive: -0.745	inactive: -0.469
CC/C=C\C/C=C\C/C=C\C/C=C\C/C=C\CCCCOC(CC)C(=O)O (stereo not drawn) [Icosabutate]		inactive: -0.784	inactive: 3.21
CC(=O)OC(C)OC(=O)C(C)c1ccc(-c2ccccc2)c(F)c1 (stereo not drawn) [lipo-flurbiprofen]	inactive: -1.16	inactive: -1.5	inactive: -0.479
CN(C/C=C/C#CC(C)(C)C)Cc1cccc2ccccc12 [Terbinafine hydrochloride]	inactive: -0.913		inactive: -0.584
CN(C/C=C/C#CC(C)(C)C)Cc1cccc2ccccc12 [terbinafine hydrochloride, Apricus Biosciences]		inactive: -1.39	
O=C1N=c2cc([N+](=O)[O-])cc(CNCP(=O)(O)O)c2=NC1=O [Becampanel]	inactive: -1.5	inactive: -0.924	inactive: -2.05
COc1ccc(Cl)c(-c2ccc(NC(=O)c3ccnn3C)nc2N)c1	inactive: 0.0697	active: 9.12	active: 8.78
CCOC(=O)C(CCc1ccccc1)NC(C)C(=O)N1CC2(CC1C(=O)O)SCCS2 (stereo not drawn) [spirapril]	inactive: 2.47	inactive: -1.55	inactive: 0.964
COc1ccc(C2CNC(=O)C2)cc1OC1CCCC1 (stereo not drawn) [rolipram]		inactive: 2.26	
COc1ccc(C2CNC(=O)C2)cc1OC1CCCC1 (stereo not drawn)	inactive: -1.22		inactive: 1.16
C[Si](C)(Cc1ccc(F)cc1)CN1CCCCC1 [Silperisone hydrochloride]	inactive: 1.2	inactive: 0.14	inactive: -0.82
NC(=O)N(O)CCC#C[C@@H]1CC[C@@H](COc2ccc(F)cc2)O1	inactive: -2.02	inactive: -0.9	active: 6.91
NC(CC(=O)[O-])C(=O)[O-] (stereo not drawn) [magnesium aspartate HCl]	inactive: -1.08	inactive: -1.36	inactive: 1.48
CCN(CC)CCOCCC1=CCC2CC1C2(C)C (stereo not drawn)	inactive: -0.456	inactive: -1.82	inactive: -0.227

Some of the entries so far, with bars between the fields:
SMILES | TEAD-luciferase reporter activity (compound concentration: 200 nM) | TEAD-luciferase reporter activity (compound concentration: 2 uM) | TEAD-luciferase reporter activity (compound concentration: 10 uM)
NC(=O)NC1NC(=O)NC1=O (stereo not drawn) [allantoin] | inactive: -2.42 | inactive: -1.59 | inactive: -0.108
CC(C)(C)OC(=O)N[C@@H](Cc1ccccc1)[C@@H](O)CNC[C@H](O)[C@H](Cc1ccccc1)NC(=O)OC(C)(C)C | inactive: -0.174 | inactive: -0.111 | inactive: 1.08

The list continues:

SMILES	TEAD-luciferase reporter activity (compound concentration: 200 nM)	TEAD-luciferase reporter activity (compound concentration: 2 uM)	TEAD-luciferase reporter activity (compound concentration: 10 uM)
COc1cc2c(cc1OC)CN(C(=O)[C@@H]1CCCN(CCNC(=O)c3ccc(F)cc3)C1)CC2	inactive: 0.00665	inactive: -1.11	inactive: 2.2
C[C@](N)(CO)C(=O)Nc1ccc(OCCc2ccc(-c3ccccc3)cc2)cc1	inactive: 0.0729	inactive: 1.19	inactive: 1.06
COc1ccccc1-c1ccc(C(=O)N2CCC(NC(=O)c3ccc(F)cc3)CC2)cc1	inactive: -1.92		inactive: -0.256
CCCOc1ccc(-c2cn3ccccc3n2)cc1	active: 7.38	inactive: -1.17	inactive: 0.535
CCOc1ccc(NC(=O)c2cccc3c2OC[C@H](CO)N3c2ccc(C)cn2)cn1	inactive: 3.3	inactive: -0.298	inactive: 0.904
CC1NC(=O)C2(CCCC2)NC1=O (stereo not drawn) [alaptide]	inactive: 0.156	inactive: -0.214	inactive: 0.323
O=C1Nc2ccc(Cl)cc2C(C#CC2CC2)(C(F)(F)F)O1 (stereo not drawn) [efavirenz sprinkle]		inactive: -1.36	
O=C1Nc2ccc(Cl)cc2C(C#CC2CC2)(C(F)(F)F)O1 (stereo not drawn) [efavirenz sprinkle, BMS]	inactive: 1.69		inactive: -0.0496
CCCCCCCC(=O)O [octanoic acid]	inactive: -1.09	inactive: 0.0433	inactive: -1.15
Cc1nc(N2CCN(Cc3ccc(F)cc3)C2=O)sc1C(=O)NCc1cccnc1	inactive: 0.654	inactive: -0.763	inactive: -0.0798
COc1ccc(S(=O)(=O)Nc2cc(C(=O)NC(C)(C)C)ccc2Oc2cc(F)c(CC(=O)O)cc2Cl)cc1	inactive: -0.529	inactive: 1.03	inactive: 0.321
C[Si](C)(C)c1cccc(C(=O)C(F)(F)F)c1	inactive: -0.744	inactive: -0.64	inactive: -1.98
CCCCCCCCCCCCCCCC(=O)OC[C@H](COP(=O)(O)OCCNC(=O)[C@H](C)NC(=O)CC[C@@H](NC(=O)[C@H](C)NC(=O)[C@@H](C)O[C@H]1[C@H](O)[C@@H](CO)OC(O)[C@@H]1NC(C)=O)C(N)=O)OC(=O)CCCCCCCCCCCCCCC (stereo partly drawn) [mifamurtide]	inactive: -0.0895	inactive: 0.288	inactive: 0.662
CC(C)C[C@H](NC(=O)[C@H](CCCCN)NC(=O)[C@H](CCCNC(=N)N)NC(=O)[C@H](C)NC(=O)[C@H](CO)NC(=O)[C@H](CCCCN)NC(=O)[C@H](CCCNC(=N)N)NC(=O)[C@H](C)NC(=O)CNC(=O)[C@@H](NC(=O)[C@H](Cc1ccccc1)NC(=O)CNC(=O)CNC(=O)[C@@H](N)Cc1ccccc1)[C@@H](C)O)C(=O)N[C@@H](C)C(=O)N[C@@H](CC(N)=O)C(=O)N[C@@H](CCC(N)=O)C(=O)O [Nociceptin]	inactive: -0.918	inactive: -0.98	inactive: 0.733
CCC[C@@H]1C[C@@H](C(=O)NC(C2O[C@H](SC)[C@H](OP(=O)(O)O)[C@@H](O)[C@H]2O)[C@H](C)Cl)N(C)C1 (stereo partly drawn) [clindamycin phosphate, KV]	inactive: 2.44	inactive: -0.692	inactive: -0.0389
COCC1(C)CCCN2CCc3c(oc4ccccc34)C21 (stereo not drawn)	inactive: 2.11	inactive: -0.301	inactive: -1.08
